Experimental data as given in patent publication US20110313028A1 (VIRGINIA COMMONWEALTH UNIVERSITY, published 2011).
No constants are given. Whether binding was seen depends on the method and setting. In cells and extracts the contact can be indirect. Some binding calls cover weakened binding; strength is not graded here. Tags and fused reporters may be left off the sequences shown.

Sequences of proteins named here, by UniProt entry; tags and fusion partners are left off.
UniProt P05412: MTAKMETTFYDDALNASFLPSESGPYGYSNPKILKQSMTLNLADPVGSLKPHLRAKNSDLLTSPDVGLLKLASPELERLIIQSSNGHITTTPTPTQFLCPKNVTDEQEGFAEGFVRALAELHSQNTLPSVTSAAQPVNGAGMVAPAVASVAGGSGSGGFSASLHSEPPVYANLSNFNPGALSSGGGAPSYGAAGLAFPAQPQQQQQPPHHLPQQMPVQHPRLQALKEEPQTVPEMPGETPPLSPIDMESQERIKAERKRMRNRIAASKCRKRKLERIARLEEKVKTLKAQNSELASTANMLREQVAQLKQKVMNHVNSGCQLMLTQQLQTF

Molecular target: c-JUN (in HeLa cells) (UniProt P05412)
Assay: co-immunoprecipitation from HeLa lysates, pull-down in both directions (anti-HA and anti-c-JUN)

B1: HA-tagged SARI (Suppressor of AP-1, Regulated by IFN), expressed in HeLa cells from Ad.SARI (other)
chain: MHLCGGNGLLTQTDPKEQQRQLKKQKNRAAAQRSRQKHTDKADALHQQHESLEKDNLALRKEIQSLQAELAWWSRTLHVHERLCPMDCASCSAPGLLGCWDQAEGLLGPGPQGQHGCREQLELFQTPGSCYPAQPLSPGPQPHDSPSLLQCPLPSLSLGPAVVAEPPVQLSPSPLLFASHTGSSLQGSSSKLSALQPSLTAQTAPPQPLELEHPTRGKLGSSPDNPSSALGLARLQSREHKPALSAATWQGLVVDPSPHPLLAFPLLSSAQVHF
notes: also called SARI protein; WT SARI; not shown: HA tag
binding: binds
